About 710 (39%) of roughly 1,800 compounds were called active. Inconclusive means that the source gave no clear call. Such entries were picked first, then a sample of the others.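 Rule for the calls: active = luciferase signal rise whose fitted curve crosses a set activity limit at or below the top valid tested dose; inconclusive = flat fit with 30 to 70% rise, or poor fit; inactive = signal falling, flat within 30%, or crossing above top dose.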
Assay: luciferase activators in glycosylation-insensitive reporter cells, dose response, counter-screen for N-linked glycosylation inhibitor project, D54 LucT cells, luminescence, cherry pick (AID 624404);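 note: 0% = median neutral control signal and 100% = twice that signal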
Details: D54 LucT luciferase reporter counterscreen, 24 h; at 19.5 µM (top of the series) unless noted

Question: With `CCOC(=O)c1[nH]c(C)c(C(=O)N2CCc3ccccc32)c1C` as the compound, how does the activity increase (luciferase signal) read?
Answer: inconclusive: 6.12%

Question: With `Cc1cc2oc(C(=O)Nc3c(C)n(C)n(-c4ccccc4)c3=O)c(C)c2cc1Cl` as the compound, how does the activity increase (luciferase signal) read?
Answer: inconclusive: 14.6%

Question: Which activity increase (luciferase signal) does the source give for `CCCOc1ccc(F)cc1-c1cc(C(=O)Nc2ccc(C(C)C)cc2)[nH]n1` here?
Answer: inconclusive: 73.9%

Question: Which activity increase (luciferase signal) does the source give for `CCn1c2ccccc2c2cc(NC(=O)CNCc3ccccc3OC)ccc21` here?
Answer: inconclusive: 67.3%

Question: For `Cc1ccc(COc2cccc(/C=N/NC(=O)c3nnn(-c4nonc4N)c3C)c2)cc1`, which activity increase (luciferase signal) is on record?
Answer: inconclusive: 58.5%

Question: With `Cc1cccc(N(C)S(=O)(=O)c2ccc(-c3cc(C)no3)s2)c1` as the compound, how does the activity increase (luciferase signal) read?
Answer: inconclusive: 19.3%

Question: With `C=C1c2nc3ccccc3n2C=C(c2ccc(C)cc2)N1c1ccccc1` as the compound, how does the activity increase (luciferase signal) read?
Answer: inconclusive: 26.4%

Question: With `COc1ccc(/C=C2\COc3ccccc3C2=O)cc1OC` as the compound, how does the activity increase (luciferase signal) read?
Answer: inconclusive: 63.7%

Question: Which activity increase (luciferase signal) does the source give for `COc1ccc(C2=Nn3c(nnc3-c3ccccc3F)SC2)cc1OC1CCOC1` (stereo unspecified) here?
Answer: inconclusive: 26.5%

Question: Which activity increase (luciferase signal) does the source give for `CCOC(=O)c1cnc2c(C)cc(C)cc2c1NCCCN1CCOCC1` here?
Answer: inactive: 34.1%

Question: With `COc1cc(C2=NOC(C(=O)NCc3cccs3)C2)cc(OC)c1OC` (stereo unspecified) as the compound, how does the activity increase (luciferase signal) read?
Answer: inconclusive: 1.22%

Question: Which activity increase (luciferase signal) does the source give for `COc1cc(C2Sc3ccccc3NC3=C2C(=O)OC3)cc(OC)c1OC` (stereo unspecified) here?
Answer: inactive: 42.2%

Question: Which activity increase (luciferase signal) does the source give for `CCOC(=O)C1CCN(Cc2cc(Cl)c3ccccc3c2O)CC1` here?
Answer: inconclusive: 30.9%

Question: Which activity increase (luciferase signal) does the source give for `CCOc1ccc(C(=O)COC(=O)Cc2n[nH]c(=O)c3ccccc23)cc1` here?
Answer: inconclusive: 64.2%

Question: For `COc1cc(NC(=O)NCc2ccco2)ccc1-c1ccc(NC(=O)NCc2ccco2)cc1OC`, which activity increase (luciferase signal) is on record?
Answer: inactive: -17.9%

Question: With `CC(C)(C)c1ccc(C(=O)O/N=C(\N)Cc2cccs2)cc1` as the compound, how does the activity increase (luciferase signal) read?
Answer: inactive: 40.3%

Question: Which activity increase (luciferase signal) does the source give for `Cc1ccsc1CNc1ncnc2ccc(-c3c(C)noc3C)cc12` here?
Answer: inactive: -1.47%

Question: With `C=C(C)Cc1c(C)c(C#N)c2nc3ccccc3n2c1NCCCN(C)C` as the compound, how does the activity increase (luciferase signal) read?
Answer: inactive: -13.5%

Question: For `NC(=O)COc1ccc(C(=O)/C=C2/C(=O)Nc3ccccc32)cc1`, which activity increase (luciferase signal) is on record?
Answer: inconclusive: 33%

Question: With `Cc1nnc2c(NCCC(C)C)nc3ccccc3n12` as the compound, how does the activity increase (luciferase signal) read?
Answer: inactive: 38.9%

Question: For `O=C(NCCN1C(=O)S/C(=C\c2cccc(Cl)c2Cl)C1=O)C1=COCCO1`, which activity increase (luciferase signal) is on record?
Answer: inactive: 34.6%

Question: For `O=C(C=Cc1ccccc1O)c1ccccc1O`, which activity increase (luciferase signal) is on record?
Answer: inconclusive: 50.4%

Question: For `CC(=O)Nc1cccc(-c2ccnc3c2CC(C(=O)NCc2ccc(F)c(F)c2)O3)c1` (stereo unspecified), which activity increase (luciferase signal) is on record?
Answer: inactive: 4.2%

Question: For `CC1(C(=O)NCc2ccccc2)Cc2c(-c3ccccc3)ccnc2O1` (stereo unspecified), which activity increase (luciferase signal) is on record?
Answer: inactive: 2.35%

Question: Which activity increase (luciferase signal) does the source give for `Cc1ccc(CCC(=O)Nc2ncc(Cc3cc(Cl)ccc3Cl)s2)o1` here?
Answer: inactive: 6.25%

Question: Which activity increase (luciferase signal) does the source give for `CCOc1ccc(Br)cc1C(=O)Nc1ccc(C(=O)NCC(C)C)cc1` here?
Answer: inconclusive: 78.4%

Question: With `CC(=O)c1cccc(-c2ccnc3c2CC(C(=O)Nc2ccc4c(c2)OCO4)O3)c1` (stereo unspecified) as the compound, how does the activity increase (luciferase signal) read?
Answer: inconclusive: 16.5%

Question: Which activity increase (luciferase signal) does the source give for `Cc1cc(C)c2nc3nc(C)c(C)cc3c(N)c2c1` here?
Answer: inconclusive: 50.2%

Question: Which activity increase (luciferase signal) does the source give for `CS(=O)(=O)Nc1cccc(NC(=O)C2Cc3c(-c4ccccc4)ccnc3O2)c1` (stereo unspecified) here?
Answer: inactive: -27.7%

Question: With `Nc1ncnc(Sc2ccc(Cl)cc2)c1[N+](=O)[O-]` as the compound, how does the activity increase (luciferase signal) read?
Answer: inactive: -13.9%

Question: With `O=C(Cc1ccc(-c2ccccc2)cc1)NCc1cccnc1` as the compound, how does the activity increase (luciferase signal) read?
Answer: inconclusive: 70.7%

Question: For `Cn1c(=O)n(C)c2cc(NS(=O)(=O)c3ccc(C(C)(C)C)cc3)ccc21`, which activity increase (luciferase signal) is on record?
Answer: inconclusive: 66.7%

Question: For `COc1ccc(-c2nnc(SCC(=O)Nc3ncc(C)s3)n2-c2ccccc2)cc1OC`, which activity increase (luciferase signal) is on record?
Answer: inactive: -24.2%

Question: With `O=c1[nH]c(CSc2ncnc3sc(-c4ccccc4)cc23)nc2ccccc12` as the compound, how does the activity increase (luciferase signal) read?
Answer: inconclusive: 6.35%

Question: For `COc1ccc(NC(=O)c2nc(C)c(C3(C)CC(c4ccccc4)=NO3)s2)cc1` (stereo unspecified), which activity increase (luciferase signal) is on record?
Answer: inactive: 21.9%

Question: With `COc1ccc2c(c1)c1ccc3c(c1n2C)C(=O)C=CC3=O` as the compound, how does the activity increase (luciferase signal) read?
Answer: inactive: 7.43%

Question: With `Cc1nc2c3cc(F)ccc3n(CCN3CCCCC3)c2s1` as the compound, how does the activity increase (luciferase signal) read?
Answer: inactive: 14.4%

Question: Which activity increase (luciferase signal) does the source give for `Cn1c(N)c(C(=O)COC(=O)c2cc(S(=O)(=O)N3CCOCC3)ccc2F)c(=O)n(C)c1=O` here?
Answer: inactive: 4.76%

Question: With `Cc1cc(N2CCCCC2)nc(NCc2ccccc2)n1` as the compound, how does the activity increase (luciferase signal) read?
Answer: inactive: -31.7%

Question: With `NC(=O)N=Nc1c2[nH]c3ccccc3nc-2c2ccccc12` as the compound, how does the activity increase (luciferase signal) read?
Answer: inconclusive: -19.6%

Question: Which activity increase (luciferase signal) does the source give for `COCCCNC(=O)C(=O)Nc1ccc2c(c1)N(S(=O)(=O)c1cccs1)CCC2` here?
Answer: inconclusive: 29.9%

Question: For `CC(=O)Nc1cccc(-c2ccnc3c2CC(C)(C(=O)NCc2cccc(Cl)c2)O3)c1` (stereo unspecified), which activity increase (luciferase signal) is on record?
Answer: inconclusive: 40.9%

Question: With `CCCCCCCCn1c2c(c(=N)c3c1CCC3)CCCC2` as the compound, how does the activity increase (luciferase signal) read?
Answer: inactive: -57.8%

Question: For `CC1(C(=O)Nc2ccc3c(c2)OCO3)Cc2c(-c3ccc4c(c3)OCO4)ccnc2O1` (stereo unspecified), which activity increase (luciferase signal) is on record?
Answer: inactive: 15.3%

Question: For `CN(C)CCCNc1c2c(nc3ccccc13)CCC2`, which activity increase (luciferase signal) is on record?
Answer: inactive: 0%

Question: Which activity increase (luciferase signal) does the source give for `COc1cccc(-c2cnc3c(NC=O)cc(-c4cc(C)c(O)c(C)c4)cn23)c1` here?
Answer: inconclusive: 27.4%

Question: For `O=c1cc(N=Nc2ccc(Cl)cc2)[nH]c(=O)[nH]1`, which activity increase (luciferase signal) is on record?
Answer: inconclusive: 100%

Question: With `COc1ccc(C=CC(=O)c2ccc(OC)c(OC)c2O)cc1OC` as the compound, how does the activity increase (luciferase signal) read?
Answer: inactive: 14.6%

Question: Which activity increase (luciferase signal) does the source give for `NC(=O)CC(NC(=O)Cc1ccc(Cl)cc1)c1ccc(NC2CCN(Cc3ccccc3)CC2)c([N+](=O)[O-])c1` (stereo unspecified) here?
Answer: inactive: 12.3%

Question: With `COc1ccc(-c2n[nH]c3c2CN(C(=O)c2ccc(OC)c(OC)c2)CC3)cc1` as the compound, how does the activity increase (luciferase signal) read?
Answer: inconclusive: 34%

Question: With `CCN(CC)CCCNC(=O)c1cc2c(=O)n(CC)c3ccccc3c2s1` as the compound, how does the activity increase (luciferase signal) read?
Answer: inconclusive: 26.8%

Question: Which activity increase (luciferase signal) does the source give for `COc1ccc(C(=O)c2cc(OC)c(OC)c(OC)c2)cc1OC` here?
Answer: inconclusive: 70%

Question: Which activity increase (luciferase signal) does the source give for `COc1ccc(-c2[nH]nc(-c3ccccc3)c2-c2nc3ccccc3[nH]2)cc1` here?
Answer: inconclusive: 2.77%

Question: With `COc1ccc(/C=C2\N=C(c3ccccc3Cl)NC2=O)cc1` as the compound, how does the activity increase (luciferase signal) read?
Answer: inconclusive: 98.1%

Question: For `Cc1ccc(NC(=O)c2cc(S(=O)(=O)N(C)C)ccc2N2CCCC2)cc1S(=O)(=O)N(C)C`, which activity increase (luciferase signal) is on record?
Answer: inconclusive: -1.07%

Question: Which activity increase (luciferase signal) does the source give for `CCN(CC)CCN1C(=O)c2cccc3cc(N)cc(c23)C1=O` here?
Answer: inconclusive: -5.46%

From PubChem BioAssay AID624404 (Broad Institute, 2012)
